Where a chain is given by its changes, count along the chain named. Where two headings read alike, the source gives them in different places. Results are given in words; binding and its absence hold for the method and conditions named. Binding seen in cells or lysates may run through a third protein. Some results given as binding are weak or reduced against the parent protein; the word gives no strength. Where a sequence is shown, tags or fusion partners need not be part of it.
Assays:
Test in all cases: pull-down
GFP-MKLP1 [1] = biological target: T1, GFP-MKLP1 (UniProt Q02241)
T1 sequence: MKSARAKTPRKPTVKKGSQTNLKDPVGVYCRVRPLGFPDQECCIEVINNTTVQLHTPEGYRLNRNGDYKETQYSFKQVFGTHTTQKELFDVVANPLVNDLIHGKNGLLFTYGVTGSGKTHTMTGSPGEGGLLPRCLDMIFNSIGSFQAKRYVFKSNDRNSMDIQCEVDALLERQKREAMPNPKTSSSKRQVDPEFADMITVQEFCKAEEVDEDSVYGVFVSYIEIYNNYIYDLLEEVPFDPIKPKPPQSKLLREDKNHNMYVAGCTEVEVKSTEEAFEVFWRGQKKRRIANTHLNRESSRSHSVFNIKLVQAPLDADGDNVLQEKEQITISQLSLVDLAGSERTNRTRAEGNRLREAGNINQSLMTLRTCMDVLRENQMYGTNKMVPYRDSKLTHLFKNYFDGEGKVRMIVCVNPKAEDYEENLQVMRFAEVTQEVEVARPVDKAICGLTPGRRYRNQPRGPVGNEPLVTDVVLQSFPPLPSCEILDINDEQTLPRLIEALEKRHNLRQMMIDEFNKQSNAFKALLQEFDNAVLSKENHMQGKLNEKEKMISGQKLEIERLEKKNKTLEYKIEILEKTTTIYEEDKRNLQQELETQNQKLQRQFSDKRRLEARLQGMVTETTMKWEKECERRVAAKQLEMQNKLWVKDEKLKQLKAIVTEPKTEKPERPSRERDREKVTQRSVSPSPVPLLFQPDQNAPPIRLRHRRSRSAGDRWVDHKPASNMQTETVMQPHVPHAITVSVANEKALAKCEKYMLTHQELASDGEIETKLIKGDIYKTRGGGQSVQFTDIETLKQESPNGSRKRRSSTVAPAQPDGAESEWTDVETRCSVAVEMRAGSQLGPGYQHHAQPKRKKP

The chains behind the UniProt entries cited, without tags or fusion partners.
UniProt O14578: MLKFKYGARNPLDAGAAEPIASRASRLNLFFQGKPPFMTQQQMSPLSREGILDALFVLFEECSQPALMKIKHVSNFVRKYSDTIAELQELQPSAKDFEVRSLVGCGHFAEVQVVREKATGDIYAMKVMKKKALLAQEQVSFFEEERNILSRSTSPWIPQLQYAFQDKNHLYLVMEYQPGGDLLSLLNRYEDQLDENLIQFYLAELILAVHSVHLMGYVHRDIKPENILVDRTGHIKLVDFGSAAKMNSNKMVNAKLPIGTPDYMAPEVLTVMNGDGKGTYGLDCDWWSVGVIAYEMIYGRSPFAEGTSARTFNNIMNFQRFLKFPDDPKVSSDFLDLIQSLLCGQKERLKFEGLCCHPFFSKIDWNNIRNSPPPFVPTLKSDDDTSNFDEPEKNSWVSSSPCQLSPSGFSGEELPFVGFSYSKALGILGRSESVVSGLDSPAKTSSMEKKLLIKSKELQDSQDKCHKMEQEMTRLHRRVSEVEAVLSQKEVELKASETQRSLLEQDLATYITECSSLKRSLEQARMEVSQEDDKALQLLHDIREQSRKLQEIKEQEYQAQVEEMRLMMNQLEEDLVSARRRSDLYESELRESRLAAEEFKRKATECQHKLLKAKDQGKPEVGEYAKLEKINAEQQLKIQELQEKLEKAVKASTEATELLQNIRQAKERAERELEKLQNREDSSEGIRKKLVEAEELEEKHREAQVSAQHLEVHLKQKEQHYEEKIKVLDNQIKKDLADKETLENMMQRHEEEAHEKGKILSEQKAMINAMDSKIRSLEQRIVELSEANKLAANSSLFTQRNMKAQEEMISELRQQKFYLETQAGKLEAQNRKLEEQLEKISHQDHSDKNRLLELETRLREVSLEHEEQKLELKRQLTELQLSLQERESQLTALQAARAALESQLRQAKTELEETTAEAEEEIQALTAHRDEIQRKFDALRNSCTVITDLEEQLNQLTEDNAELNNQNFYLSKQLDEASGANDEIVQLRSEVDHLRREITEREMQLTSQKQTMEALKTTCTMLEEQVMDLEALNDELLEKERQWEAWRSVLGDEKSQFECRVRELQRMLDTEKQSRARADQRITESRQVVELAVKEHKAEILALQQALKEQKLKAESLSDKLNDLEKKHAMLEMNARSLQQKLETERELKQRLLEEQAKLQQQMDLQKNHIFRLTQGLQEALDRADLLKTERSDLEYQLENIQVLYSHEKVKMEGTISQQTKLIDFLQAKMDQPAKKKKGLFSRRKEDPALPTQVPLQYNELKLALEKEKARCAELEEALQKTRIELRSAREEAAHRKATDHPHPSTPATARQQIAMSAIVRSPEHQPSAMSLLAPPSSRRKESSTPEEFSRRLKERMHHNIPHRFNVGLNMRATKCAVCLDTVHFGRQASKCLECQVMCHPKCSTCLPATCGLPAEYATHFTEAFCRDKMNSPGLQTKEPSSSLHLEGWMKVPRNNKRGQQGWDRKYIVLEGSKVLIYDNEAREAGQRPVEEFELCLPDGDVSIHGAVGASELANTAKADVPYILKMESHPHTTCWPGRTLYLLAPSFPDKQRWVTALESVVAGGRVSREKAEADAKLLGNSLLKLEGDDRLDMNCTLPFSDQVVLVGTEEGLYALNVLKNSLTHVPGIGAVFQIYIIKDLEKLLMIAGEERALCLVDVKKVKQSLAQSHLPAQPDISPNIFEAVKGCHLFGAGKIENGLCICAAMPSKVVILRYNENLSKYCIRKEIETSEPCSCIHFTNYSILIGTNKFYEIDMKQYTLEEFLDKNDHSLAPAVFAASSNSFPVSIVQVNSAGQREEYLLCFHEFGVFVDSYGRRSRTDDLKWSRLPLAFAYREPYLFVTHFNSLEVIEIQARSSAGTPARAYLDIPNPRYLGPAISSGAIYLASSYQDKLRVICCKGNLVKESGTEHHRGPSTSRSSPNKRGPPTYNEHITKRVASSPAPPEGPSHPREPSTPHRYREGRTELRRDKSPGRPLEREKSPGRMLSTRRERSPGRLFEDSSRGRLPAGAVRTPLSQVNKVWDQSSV
UniProt P62140: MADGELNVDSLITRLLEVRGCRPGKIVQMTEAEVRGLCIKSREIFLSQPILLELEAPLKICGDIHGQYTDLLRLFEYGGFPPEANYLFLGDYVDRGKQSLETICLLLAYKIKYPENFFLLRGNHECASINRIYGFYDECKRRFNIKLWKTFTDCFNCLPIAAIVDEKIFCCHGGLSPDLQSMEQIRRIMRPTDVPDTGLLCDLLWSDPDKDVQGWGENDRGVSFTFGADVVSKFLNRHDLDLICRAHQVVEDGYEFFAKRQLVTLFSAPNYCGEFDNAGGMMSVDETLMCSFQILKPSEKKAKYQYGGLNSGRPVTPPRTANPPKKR

[2] = biological target: T2, MBP-MKLP1 (full length, wild type) (UniProt Q02241)
T2 sequence: T1 sequence

MBP-MKLP1^AQA = biological target: T3, MBP-MKLP1^AQA (UniProt Q02241)
T3 sequence: T1 sequence with V786A, F788A

GFP-MKLP1 [3] = biological target: T1, GFP-MKLP1; remark: listed apart in the source

Row | Substance | binding (GFP-MKLP1 [1]) | binding [2] | binding (MBP-MKLP1^AQA) | binding (GFP-MKLP1 [3])
1 | Citron kinase (endogenous) (from UniProt O14578 1-2027) (enzyme) | binds |  |  | 
2 | GST-PP1β (from UniProt P62140 1-327) (enzyme) |  | binds | binds | 
3 | PP1β (endogenous) (from UniProt P62140 1-327) (enzyme) | binds |  |  | binds weakly

From doi:10.1101/569459 (bioRxiv, 2019)
